Data on 4 substances can be found in article PMC5472764.

Chains of the proteins cited; added tags and fusions are not shown. Lines headed by an entry give the natural chain unless they say otherwise; changes in a name come on top.
UniProt P19174: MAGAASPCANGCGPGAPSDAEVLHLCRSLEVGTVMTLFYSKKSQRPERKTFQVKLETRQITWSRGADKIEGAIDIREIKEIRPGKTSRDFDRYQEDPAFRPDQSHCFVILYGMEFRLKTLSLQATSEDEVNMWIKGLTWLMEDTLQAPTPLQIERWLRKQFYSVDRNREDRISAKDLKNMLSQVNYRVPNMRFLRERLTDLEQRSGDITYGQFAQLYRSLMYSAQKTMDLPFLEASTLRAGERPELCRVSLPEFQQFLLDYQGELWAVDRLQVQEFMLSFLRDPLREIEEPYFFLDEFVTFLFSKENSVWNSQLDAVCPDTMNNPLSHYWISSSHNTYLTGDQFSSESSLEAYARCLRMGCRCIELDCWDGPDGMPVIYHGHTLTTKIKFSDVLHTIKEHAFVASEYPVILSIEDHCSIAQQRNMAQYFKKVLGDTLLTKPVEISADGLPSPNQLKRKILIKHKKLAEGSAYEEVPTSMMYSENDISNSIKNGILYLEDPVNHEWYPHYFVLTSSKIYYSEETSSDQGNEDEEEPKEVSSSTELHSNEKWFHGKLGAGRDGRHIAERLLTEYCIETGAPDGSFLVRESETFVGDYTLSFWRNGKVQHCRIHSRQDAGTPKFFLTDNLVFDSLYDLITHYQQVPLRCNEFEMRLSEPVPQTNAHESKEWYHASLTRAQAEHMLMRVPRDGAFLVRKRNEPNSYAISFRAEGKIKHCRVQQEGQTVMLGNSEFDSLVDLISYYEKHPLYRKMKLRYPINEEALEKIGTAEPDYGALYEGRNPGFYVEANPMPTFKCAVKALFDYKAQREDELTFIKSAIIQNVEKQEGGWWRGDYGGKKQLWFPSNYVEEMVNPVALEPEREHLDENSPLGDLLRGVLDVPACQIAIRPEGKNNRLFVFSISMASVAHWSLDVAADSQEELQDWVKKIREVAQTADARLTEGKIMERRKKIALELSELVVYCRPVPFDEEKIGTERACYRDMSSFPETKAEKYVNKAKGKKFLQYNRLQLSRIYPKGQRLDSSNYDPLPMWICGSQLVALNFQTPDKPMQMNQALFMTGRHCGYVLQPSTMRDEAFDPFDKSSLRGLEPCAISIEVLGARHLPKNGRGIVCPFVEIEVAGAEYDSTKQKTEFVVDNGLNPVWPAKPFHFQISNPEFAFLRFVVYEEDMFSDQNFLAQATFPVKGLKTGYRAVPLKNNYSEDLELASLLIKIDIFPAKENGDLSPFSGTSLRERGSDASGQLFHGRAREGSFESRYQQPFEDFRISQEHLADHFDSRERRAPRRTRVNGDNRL
UniProt P11881: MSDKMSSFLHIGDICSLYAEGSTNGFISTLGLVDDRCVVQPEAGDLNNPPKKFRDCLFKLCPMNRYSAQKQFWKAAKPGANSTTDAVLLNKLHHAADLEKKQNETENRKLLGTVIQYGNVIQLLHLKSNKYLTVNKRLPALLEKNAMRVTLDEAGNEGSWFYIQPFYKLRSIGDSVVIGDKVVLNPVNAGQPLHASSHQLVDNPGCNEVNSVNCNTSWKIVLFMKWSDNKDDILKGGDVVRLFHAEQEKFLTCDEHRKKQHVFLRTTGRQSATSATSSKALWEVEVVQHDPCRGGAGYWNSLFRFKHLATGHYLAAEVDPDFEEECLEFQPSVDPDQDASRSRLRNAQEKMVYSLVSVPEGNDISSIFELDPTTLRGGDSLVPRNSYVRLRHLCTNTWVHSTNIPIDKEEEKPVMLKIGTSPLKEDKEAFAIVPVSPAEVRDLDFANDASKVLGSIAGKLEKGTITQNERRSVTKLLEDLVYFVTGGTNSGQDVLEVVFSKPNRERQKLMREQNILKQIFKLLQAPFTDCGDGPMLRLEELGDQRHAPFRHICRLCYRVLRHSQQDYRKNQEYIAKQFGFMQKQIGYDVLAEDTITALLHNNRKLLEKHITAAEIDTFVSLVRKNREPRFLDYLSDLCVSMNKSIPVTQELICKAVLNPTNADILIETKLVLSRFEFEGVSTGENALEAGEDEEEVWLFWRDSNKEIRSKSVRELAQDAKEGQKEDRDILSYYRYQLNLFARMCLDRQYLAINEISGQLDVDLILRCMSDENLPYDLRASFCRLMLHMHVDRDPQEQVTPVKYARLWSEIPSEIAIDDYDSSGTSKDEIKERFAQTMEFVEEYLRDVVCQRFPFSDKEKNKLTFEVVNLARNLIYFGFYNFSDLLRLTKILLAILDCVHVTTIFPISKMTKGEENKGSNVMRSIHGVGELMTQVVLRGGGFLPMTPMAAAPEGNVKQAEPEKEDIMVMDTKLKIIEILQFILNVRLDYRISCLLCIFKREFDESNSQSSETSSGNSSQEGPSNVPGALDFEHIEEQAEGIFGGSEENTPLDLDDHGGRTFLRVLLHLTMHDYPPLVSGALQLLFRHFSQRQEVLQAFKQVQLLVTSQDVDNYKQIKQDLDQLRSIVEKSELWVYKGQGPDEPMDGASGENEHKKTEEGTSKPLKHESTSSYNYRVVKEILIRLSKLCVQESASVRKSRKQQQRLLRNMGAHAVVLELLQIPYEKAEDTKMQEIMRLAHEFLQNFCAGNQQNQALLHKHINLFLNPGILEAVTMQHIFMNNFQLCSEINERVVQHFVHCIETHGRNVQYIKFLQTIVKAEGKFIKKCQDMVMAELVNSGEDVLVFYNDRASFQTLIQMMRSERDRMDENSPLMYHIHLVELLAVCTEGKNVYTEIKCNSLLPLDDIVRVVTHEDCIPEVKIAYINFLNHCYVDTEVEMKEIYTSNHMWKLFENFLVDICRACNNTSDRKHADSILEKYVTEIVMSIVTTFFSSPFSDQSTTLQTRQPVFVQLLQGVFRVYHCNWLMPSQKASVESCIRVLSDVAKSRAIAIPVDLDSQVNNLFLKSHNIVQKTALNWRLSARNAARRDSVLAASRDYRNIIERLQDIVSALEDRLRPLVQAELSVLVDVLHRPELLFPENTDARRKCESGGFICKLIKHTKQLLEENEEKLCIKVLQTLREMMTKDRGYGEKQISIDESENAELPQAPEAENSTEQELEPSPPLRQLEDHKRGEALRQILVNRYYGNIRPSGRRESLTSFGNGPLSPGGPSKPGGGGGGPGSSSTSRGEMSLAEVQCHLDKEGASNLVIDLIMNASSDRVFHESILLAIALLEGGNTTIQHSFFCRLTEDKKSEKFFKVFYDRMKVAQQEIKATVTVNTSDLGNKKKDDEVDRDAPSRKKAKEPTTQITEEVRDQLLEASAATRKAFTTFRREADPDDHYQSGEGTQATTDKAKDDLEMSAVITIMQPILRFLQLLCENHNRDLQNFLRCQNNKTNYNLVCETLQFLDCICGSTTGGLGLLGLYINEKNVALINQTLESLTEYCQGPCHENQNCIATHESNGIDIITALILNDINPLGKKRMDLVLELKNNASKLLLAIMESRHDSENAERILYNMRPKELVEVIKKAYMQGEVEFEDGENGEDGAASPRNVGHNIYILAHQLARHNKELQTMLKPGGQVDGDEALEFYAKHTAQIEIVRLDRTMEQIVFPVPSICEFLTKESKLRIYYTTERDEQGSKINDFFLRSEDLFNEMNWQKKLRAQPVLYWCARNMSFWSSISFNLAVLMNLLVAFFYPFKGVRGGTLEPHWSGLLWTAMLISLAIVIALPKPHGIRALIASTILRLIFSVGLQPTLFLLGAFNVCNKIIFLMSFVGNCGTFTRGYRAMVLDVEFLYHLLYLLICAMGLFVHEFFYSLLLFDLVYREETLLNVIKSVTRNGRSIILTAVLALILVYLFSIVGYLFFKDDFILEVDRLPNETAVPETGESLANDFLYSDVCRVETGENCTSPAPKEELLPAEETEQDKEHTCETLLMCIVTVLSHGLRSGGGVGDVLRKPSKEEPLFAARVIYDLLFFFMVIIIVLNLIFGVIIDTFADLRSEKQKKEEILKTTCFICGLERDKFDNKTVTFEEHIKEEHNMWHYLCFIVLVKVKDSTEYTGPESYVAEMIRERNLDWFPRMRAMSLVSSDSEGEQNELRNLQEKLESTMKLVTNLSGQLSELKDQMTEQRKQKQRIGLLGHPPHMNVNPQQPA

Experiment [1] addresses T1, Flag-tagged full-length Tespa1 (FL) (mouse) (UniProt Q3U132).
T1 sequence: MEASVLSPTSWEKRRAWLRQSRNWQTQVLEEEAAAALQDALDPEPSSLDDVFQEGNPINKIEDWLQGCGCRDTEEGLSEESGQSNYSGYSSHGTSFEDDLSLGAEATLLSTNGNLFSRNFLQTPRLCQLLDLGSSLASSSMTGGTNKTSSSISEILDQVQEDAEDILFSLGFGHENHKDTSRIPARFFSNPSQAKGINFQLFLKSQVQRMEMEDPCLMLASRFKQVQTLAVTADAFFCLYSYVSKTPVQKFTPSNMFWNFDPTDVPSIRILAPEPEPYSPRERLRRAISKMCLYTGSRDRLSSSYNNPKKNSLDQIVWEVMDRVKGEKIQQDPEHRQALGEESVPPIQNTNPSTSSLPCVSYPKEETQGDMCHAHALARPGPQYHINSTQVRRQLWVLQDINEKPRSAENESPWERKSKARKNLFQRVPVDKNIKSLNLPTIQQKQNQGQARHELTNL
Kind of experiment: co-IP; HEK293 cells co-transfected with Flag-tagged Tespa1 and HA-tagged PLC-γ1 or its mutants; NP-40 lysis buffer (50 mM Tris pH 7.4, 150 mM NaCl, 1% NP-40); anti-Flag beads 4 h at 4 °C; blots with anti-Flag and anti-HA.

Experiment [2] deals with T1, Flag-tagged full-length Tespa1 (FL) (mouse). Kind of experiment: co-IP; HEK293 cells co-transfected with Flag-tagged Tespa1 (FL or mutants) and the HA-tagged IP3R1 construct; IP with anti-Flag beads or with anti-HA antibodies plus protein G beads; blots with anti-Flag and anti-HA.
Experiment [3] addresses T2, Tespa1 (two-hybrid fusion) (mouse) (UniProt Q3U132).
T2 sequence: T1 sequence
Kind of experiment: two-hybrid; yeast two-hybrid system; Tespa1 against cloned signalling molecules of the LAT signalosome.

Results are given in words; binding and its absence hold for the method and conditions named. Binding can be weak; no strength is given. Sequences can lack the tags named with a protein. For some of these results: Binding seen in cells or lysates may run through a third protein.

As for “PLC-γ1-ΔX (from UniProt P19174) (enzyme)”, the binding result in experiment [1] is recorded as “binds”.
For the substance “HA-tagged IP3R1-N (amino acids 1–610) (from UniProt P11881) (domain or fragment)”, in experiment [2], the binding entry is given as “binds”.
Take “X catalytic domain of PLC-γ1 (two-hybrid fusion) (domain or fragment)”: the binding result in experiment [3] was “binds”.
Take “PLC-γ1-ΔY (from UniProt P19174) (enzyme)”: in experiment [1], the binding result is recorded as “binds”.
